# This is one part of the list.
# B1: il2ra_site1_1z92_sap_13_mot_HHH_b2_05648_af2_000000135_0001_42_57_H_._94f557e17ac761c6798c16b9e748a37e_0001_1_0001_0000200019_0000001_0_0001_af2pred_0001_af2pre … (protein)
# chain: SEEERLEELLEELGVPPEDIRALRKDFKRAQEAGIPPEVVVKALIRILRRKGDPLAEEALELFLK
# B2: il2ra_site2_3nfp_sap_32_mot_HHH_b1_01767_000000280_0001_1_18_H_._1426d49a9706e560ad12cebec5766a74_0001_1_0001_0000100004_0000001_0_0001 (protein)
# chain: SSSSDKSEEYLKVAVEIIRAALKEGDPEVAERLLKVLKAAAESANDEEVEELVRELEELLSSSSS
# B3: il2ra_site1_2b5i_sap_18_mot_HHH_b1_01419_af2_000000080_0001_42_53_H_._HHH_b1_01280_af2_0001_0000300024_0000001_0_0001 (protein)
# chain: SSSSSDEADEEVQRLFAEASHIPDPEEAVKVLEEALRLAEEEGDENIRRDLEFMIERFRGSSSSS
# B4: il2ra_site1_2b5i_sap_7_mot_HHH_b1_00095_000000042_0001_1_14_H_._fa9d0efb6cdfa3d48f532c1d34b61b18_0001_af2_0001_0000100002_0000001_0_0001 (protein)
# chain: SSSSSDLEEEASELFHEASHLWRKGDPRARELLEEAIELARELGDEELLRQLERAYRIFGSSSSS
# B5: il2ra_site1_2b5i_normal_mot_HHH_b1_02476_af2_000000255_0001_1_19_H_._HHH_b2_05139_af2_0001_0000300024_0000001_0_af2pred_dldesign_0_af2pred (protein)
# chain: SSSSDEVYEEIDRLYKEALELKKAGKKEEAMKLLDKAIELAKKANDEKTLAQLEKLKTLLSSSSS
# B6: il2ra_site1_3nfp_normal_mot_HHH_b1_05070_af2_000000282_0001_43_57_H_._HHH_b1_08541_0001_0000400027_0000001_0 (protein)
# chain: SSSSSEEEREARELAQEIYELMKEGDEEEAKELLERLRELVKELGDKVARYFVKMLEEILHSSSS
# B7: il2ra_site2_2erj_sap_25_mot_HHH_b2_01204_af2_000000056_0001_19_34_H_._HHH_b2_03606_0001_0000300020_0000001_0_0001 (protein)
# chain: SSSSSSELEELLEEAKQLLEEGNPEEAERVLLEAFELAAEKGDHEVAAAVIELIARIAKSSSSSS
# B8: il2ra_site2_3nfp_normal_mot_HHH_b1_06589_000000230_0001_37_50_H_._HHH_b1_03283_af2_0001_0000400020_0000001_1 (protein)
# chain: SSSDHHEAYALLADALFLAYQNNNEELLQKLARLLHELYEHKDPELAEELRRLAEEVEKELSSSS
# B9: il2ra_site1_2b5i_sap_13_mot_HHH_b2_00318_000000002_0001_42_56_H_._ac21b6101d1b909bc51415b35f28fc50_0001_0001_0000100012_0000001_0_0001_af2pred_0001_af2pred_1 (protein)
# chain: SSSSDEKEEEVQELAKEAIEKLEKNGSRLRAEALRRMLEELEKEGDPRVLEQLEHLVKRILSSSS
# B10: il2ra_site2_2erj_normal_mot_HHH_b1_06697_000000025_0001_41_54_H_._HHH_b2_03722_0001_0000300007_0000001_0_af2pred_0001_1_af2pred_swapped (protein)
# chain: SSSSSDKEEVEERVREILEEAEQVRDPREALKILEKADRLASENNNEEALELIHEVLQRLSSSSS
# B11: il2ra_site1_2b5i_sap_16_mot_HHH_b2_01162_000000236_0001_22_38_H_._4004acc1088fa2ad3b456bbf002898ca_0001_af2_0001_0000400007_0000001_0_0001_af2pred_dldesign_0_af … (protein)
# chain: SSSSSPEVEALLAEARAALAAGRLDEARRLLLEAAELAEEEDDRELLKEIIKELRRVELASSSSS
# B12: il2ra_site1_3nfp_sap_7_mot_HHH_b2_02159_000000237_0001_1_17_H_._HHH_b1_04540_0001_0000700039_0000001_0_0001_af2pred_0001_af2pred (protein)
# chain: PSRLVEEIIKLIRKGDPEAEELAKELEELAEELNDPRLEKVAELLLEAVKKGDKELLEKALQAAA
# B13: il2ra_site1_3nfp_normal_mot_HHH_b2_05589_af2_000000060_0001_42_57_H_._HHH_b1_05883_0001_0000100002_0000001_0 (protein)
# chain: SSSSSNQEIARLIDEAWRLKAEGNPEEAERVLEEALELARELGDELAERFIEELLRLIERSSSSS
# B14: il2ra_site2_3nfp_sap_18_mot_HHH_b1_04960_000000149_0001_23_39_H_._HHH_b2_05326_0001_0000500024_0000001_0_0001 (protein)
# chain: SSSSSSEEEIERLLEKLEELVRNNDEEEAEELSARISELIFELGNFELFAELLELSVALFSSSSS
# B15: il2ra_site1_2b5i_normal_mot_HHH_b2_04910_000000118_0001_1_19_H_._HHH_b2_05364_af2_0001_0000500048_0000001_0_af2pred_dldesign_0_af2pred (protein)
# chain: SSSSSPLTKKALELFLEANKLKQAGKEEEAKEKLEEALRLAKEAGSNSLVRILELALEQLESSSS
# B16: il2ra_site1_3nfp_sap_15_mot_HHH_b1_07644_af2_000000110_0001_40_57_H_._HHH_b1_02888_0001_0000100006_0000001_0_0001 (protein)
# chain: SSSDREELQRLAQEALELAFNGNPEEAQRVLEEALELAERLNDERAFRFIERLLRQIERFFSSSS
# B17: il2ra_site2_3nfp_normal_mot_HHH_b1_04264_000000089_0001_1_18_H_._332cd829babfe32ea4315b179459513b_0001_1_0001_0000100003_0000001_0 (protein)
# chain: SQEVFEVIHKLREEGDPELAISLFALLAELLLHPENEELREKLEELLEIIKKNPEEAREVARKLP
# B18: il2ra_site2_3nfp_normal_mot_HHH_b1_06997_af2_000000208_0001_19_35_H_._HHH_b2_00218_0001_0000300039_0000001_0 (protein)
# chain: SSSSSEREEYLEAAVALLEEALKEGDEEFARKLLELVKKLAEDAGDEEILERLEEIEEELSSSSS
# B19: il2ra_site2_3nfp_normal_mot_HHH_b2_08245_000000023_0001_41_55_H_._HHH_b2_04266_af2_0001_0000100001_0000001_0 (protein)
# chain: SSSSSDEEERRIEELIEEAREIEDPEEARKILAEATHLAYEARNSELFFAIAEVLFKLLSSSSSS
# Biological target: il2ra, P01589
# Experiment: yeast display titration
row,Binder,apparent Kd
1,B1,inactive: no binding seen
2,B2,inactive: no binding seen
3,B3,inactive: no binding seen
4,B4,inactive: no binding seen
5,B5,inactive: no binding seen
6,B6,inactive: > 670 nM
7,B7,inactive: no binding seen
8,B8,inactive: no binding seen
9,B9,inactive: no binding seen
10,B10,inactive: no binding seen
11,B11,inactive: no binding seen
12,B12,inactive: no binding seen
13,B13,inactive: no binding seen
14,B14,inactive: no binding seen
15,B15,inactive: no binding seen
16,B16,inactive: no binding seen
17,B17,inactive: no binding seen
18,B18,inactive: no binding seen
19,B19,inactive: no binding seen

# 2 entries drawn at random from the list so far, as already listed:
row,Binder,apparent Kd
17,B17,inactive: no binding seen
14,B14,inactive: no binding seen
